Results deposited as PubChem BioAssay AID652259 (Drosophila RNAi Screening Center, 2013)
In all, the deposit lists about 22,000 reagents; shown is an unselected part of those that have a named target and a result. In the full data, 233 (1.1%) were called active. 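Light values are raw, unnormalised plate reads; the ratio scores behind the reporter calls were not deposited.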 Entries without a mark were called inactive. Names joined by + are all predicted targets of the reagent. Not given: the amount of reagent, the time to read-out, the dose of the treatment.

- Screen: 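Knock-downs that push a Wingless-driven reporter up or down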 (primary screen)
- System: Drosophila clone 8 imaginal disc epithelial cells
- Reagent: long dsRNA against Drosophila genes
- Conditions: pathway stimulated by co-transfected Wingless expression plasmid
- Detection: 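Firefly luciferase from a tcf-site Wingless reporter, measured alongside co-transfected Renilla luciferase that tracks transfection; pathway stimulated by a Wingless plasmid; the firefly-to-Renilla ratio is not deposited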
- Reading the numbers: firefly reporter light: higher = more Wg reporter light, before normalisation; Renilla control light: higher = more transfected or surviving cells
- Active means: 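a knock-down is a candidate when at least two out of four statistical tests show it departing from its plate mean; one test alone signals a weak candidate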
- Calls: active = candidate regulator (raises or lowers reporter); inactive = not a candidate

eIF3e (eukaryotic translation initiation factor 3 subunit e) [DRSC11199] gave firefly reporter light, replicate 1 = 12128; Renilla control light, replicate 1 = 1820. Knock-down of Jhbp3 (Juvenile hormone binding protein 3) [DRSC12247] resulted in: firefly reporter light, replicate 1 = 13187; Renilla control light, replicate 1 = 4903. Argl + CG9515 [DRSC03243] showed firefly reporter light, replicate 1 = 18065; Renilla control light, replicate 1 = 5096. Argl + CG9515 [DRSC03245] scored firefly reporter light, replicate 1 = 4592; firefly reporter light, replicate 2 = 8488; Renilla control light, replicate 1 = 1127; Renilla control light, replicate 2 = 4044. Knock-down of CG6766 [DRSC02991] resulted in: firefly reporter light, replicate 1 = 2055; firefly reporter light, replicate 2 = 8005; Renilla control light, replicate 1 = 1314; Renilla control light, replicate 2 = 2657. For Spc105R (Spc105-related) [DRSC11663] the deposit lists firefly reporter light, replicate 1 = 14161; Renilla control light, replicate 1 = 2996.

For CG2750 [DRSC19867], the entry reads firefly reporter light, replicate 1 = 4061; firefly reporter light, replicate 2 = 22368; Renilla control light, replicate 1 = 1334; Renilla control light, replicate 2 = 13533. After knock-down of CG16952 [DRSC19759] the results were firefly reporter light, replicate 1 = 13746; Renilla control light, replicate 1 = 6825. For Nipped-B [DRSC07815], the values are firefly reporter light, replicate 1 = 4929; Renilla control light, replicate 1 = 2068. With knock-down of glob1 (globin 1) [DRSC16959], the record shows firefly reporter light, replicate 1 = 2961; firefly reporter light, replicate 2 = 5369; Renilla control light, replicate 1 = 1696; Renilla control light, replicate 2 = 1543. With knock-down of DIP-iota (Dpr-interacting protein iota) [DRSC02140], the screen gave firefly reporter light, replicate 1 = 1926; firefly reporter light, replicate 2 = 7657; Renilla control light, replicate 1 = 693; Renilla control light, replicate 2 = 2321. After knock-down of Ubc4 (Ubiquitin conjugating enzyme 4) [DRSC11312] the results were firefly reporter light, replicate 1 = 4637; Renilla control light, replicate 1 = 1725.

Part of the list above in another layout:
{"target gene": "CG16952", "dsRNA": "DRSC19759", "firefly reporter light, replicate 1": 13746, "Renilla control light, replicate 1": 6825}
{"target gene": "Nipped-B", "dsRNA": "DRSC07815", "firefly reporter light, replicate 1": 4929, "Renilla control light, replicate 1": 2068}
